Source: PubChem BioAssay AID463205 (Broad Institute, 2010)
Among all 2,400 compounds or so, about 20 (0.8%) were called active.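 How the source made its calls: active means AC50 no more than ten times the highest tested concentration, or full inhibition at every dose giving a flat fit (cut at about 30 µM in these data); inconclusive means flat fit with activity between 30% and 70%, or poor-quality invalid fit; inactive means AC50 more than ten times the top tested dose.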 Some of the results follow.

Test: inhibitors of ADP-Glo detection reagents, dose response, artefact control for GSK-3a inhibitor project, biochemical, luminescence, cell-free, homogeneous (AID 463205);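 further: kinase-free counter-screen against the ADP-Glo detection reagents only; potency is for inhibitors that reduce the luminescence signal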
Conditions: 5 uM ADP

AC50, inactive:
Nc1n[nH]c2cc(=O)n(-c3ccc(Cl)cc3)nc12 > 30 µM
O=C(NC1CCCC1)c1ccc(Cn2c(=O)[nH]c3ccsc3c2=O)cc1 > 30 µM
COc1ccc(S(=O)(=O)NC(C)C(=O)O)cc1 (configuration not stated) > 30 µM
Cc1nc2c(c3c1[nH]c1ccccc13)C(=O)CC(C)(C)C2 > 30 µM
O=C(NC(=S)Nc1cccc2c(O)cccc12)c1ccccc1[N+](=O)[O-] > 30 µM
COc1ccccc1NC(=O)CSc1ccc2nnc(-c3ccc(C)cc3)n2n1 > 30 µM
CS(=O)(=O)N1CCN(c2ccc(NC(=O)c3ccc(Br)o3)cc2)CC1 > 30 µM
Cn1cnnc1SCC(=O)Nc1ncc([N+](=O)[O-])s1 > 30 µM
N#CCCN(Cc1ccccc1)S(=O)(=O)c1cccs1 > 30 µM
NC(=O)c1ccsc1NC(=O)C1CCCCC1 > 30 µM
Cc1nc(S/C(=C/c2ccc(-c3ccc(C(=O)O)cc3)o2)C(=O)O)n[nH]1 > 30 µM
CC(=O)N1CCN(c2ccccc2NC(=O)c2ccc(Br)o2)CC1 > 30 µM
COc1ccc(NC(=O)Nc2ccc(F)cc2F)c(C)c1 > 30 µM
O=C1/C(=C/c2ccc3c(c2)OCO3)Oc2cc(OCC(=O)N3CC(O)C[C@H]3C(=O)O)ccc21 (some centres not stated) > 30 µM
Nc1ccccc1-c1nc2ccccc2[nH]1 > 30 µM
O=C(CSc1ccc2nnc(-c3ccccn3)n2n1)N1CCN(c2ccccc2)CC1 > 30 µM
Cc1cccc(NC(=O)CSc2nc3[nH]ncc3c(=O)n2-c2ccccc2)c1 > 30 µM
COCCCNc1nc2nonc2nc1N1C[C@H]2CC[C@H]1C2 > 30 µM
CC1(C)CC(=O)c2cnc(NCC3CCCO3)nc2C1 (configuration not stated) > 30 µM
CC(=O)Nc1cccc(-c2csc(Nc3ccccn3)n2)c1 > 30 µM
CCCN(CCC)Cc1c(C(=O)N/N=C/C(C)=C\c2ccco2)nnn1-c1nonc1N > 30 µM
N#CC1=C2SCN(c3ccccc3)CN2C(=O)CC1c1ccccc1Cl (configuration not stated) > 30 µM
COc1ccc(OC)c(N=c2oc3c(OC)cccc3cc2C(=O)NCc2ccco2)c1 > 30 µM
COc1ccc(OC)c(C2CC(=O)N3CN(c4ccccc4)CSC3=C2C#N)c1 (configuration not stated) > 30 µM
CCOC(=O)c1sc(NC(=O)CN2C(=O)NC3(CCC(C)CC3)C2=O)c(C(=O)OCC)c1C (configuration not stated) > 30 µM
N#Cc1c(N)n(CCNC(=O)c2cccs2)c2nc3ccccc3nc12 > 30 µM
CCOC(=O)c1cc(CC)sc1NC(=O)CN1CCN(C(=O)c2ccco2)CC1 > 30 µM
Brc1ccccc1/C=N/Nc1ccc2ccccc2n1 > 30 µM
COC(=O)c1ccccc1N=Nc1c(N)[nH][nH]c1=O > 30 µM
COc1ccc(C2C3(C#N)C(N)=NC(OC)(OC)C23C#N)cc1 (configuration not stated) > 30 µM
Cc1ccc(C2C3=C(CCCC3=O)Nc3c2c(C)nn3-c2ccccn2)o1 (configuration not stated) > 30 µM
COc1cccc(-n2c(SCC(N)=O)nnc2-c2ccco2)c1 > 30 µM
O=C(COC(=O)c1cc(=O)[nH]c2ccccc12)Nc1ccc(Cl)cn1 > 30 µM
CN(C)S(=O)(=O)N1CCN(c2ccnc3cc(Cl)ccc23)CC1 > 30 µM
CN(Cc1c(C(=O)N/N=C/c2ccccc2)nnn1-c1nonc1N)C1CCCCC1 > 30 µM
O=c1cc(-c2ccccc2Cl)oc2c(NS(=O)(=O)c3cc(Cl)cc(Cl)c3O)ccc(O)c12 > 30 µM
Cc1cc(/C=N/Nc2ccc([N+](=O)[O-])cn2)c(C)n1-c1cccc(C(=O)O)c1 > 30 µM
Fc1ccc(Nc2nc(-c3ccncc3)nc3ccccc23)cc1F > 30 µM
CCc1nnc(NC(=O)c2cccc(S(=O)(=O)N3CC(c4ccccc4)CC3=O)c2)s1 (configuration not stated) > 30 µM
CC1(C)CC(=O)C(C(c2cccnc2)C2C(=O)CC(C)(C)CC2=O)C(=O)C1 > 30 µM
CC(=O)c1sc(NC(=O)CN2C(=O)C3CCCCC3C2=O)nc1-c1ccccc1 (configuration not stated) > 30 µM
CCOc1ccc2nnc(-c3ccc(Br)cc3)n2n1 > 30 µM
Cc1ccc(-c2c3c(nc4sc(C(N)=O)c(N)c24)CCC3)cc1 > 30 µM
Cc1ccc(S(=O)(=O)N(CC(O)CN2CCCCC2)c2ccccc2)cc1 (configuration not stated) > 30 µM
CC(C)CC(=O)NC(=S)Nc1sc2c(c1C(N)=O)CCC2 > 30 µM
Cc1cccc(N2CC(C(=O)Nc3nccs3)CC2=O)c1C (configuration not stated) > 30 µM
CCCC(=O)Nc1ccc2c(c1)C(=O)NC2=O > 30 µM
CCn1c2ccc(Cl)cc2c2nc3ccccc3nc21 > 30 µM
O=C1C(SCCO)=C(SCCO)C(=O)c2ccccc21 > 30 µM
CC[n+]1c(/C=C/C=C/N(C(C)=O)c2ccccc2)sc2ccccc21 > 30 µM
O=C(Nc1cccc(F)c1)C1CCCN1S(=O)(=O)c1cccc2cccnc12 (configuration not stated) > 30 µM
C[C@@H]1O[C@@H](O[C@H]2[C@H](O)[C@@H](O)[C@H](Oc3c(-c4ccc(O)c(O)c4)oc4cc(O)cc(O)c4c3=O)O[C@@H]2CO)[C@H](O)[C@H](O)[C@H]1O > 30 µM
Cc1cccc(NC(=O)c2sc(Cl)nc2-c2ccccc2)c1 > 30 µM
Cc1noc(C)c1COc1ccc2ccc(=O)oc2c1 > 30 µM
CCc1cc(C(=O)c2ccc(OC)cc2)c(NC(=O)COCC(=O)O)s1 > 30 µM
O=[N+]([O-])c1ccc(NCCCN2CCOCC2)c([N+](=O)[O-])c1 > 30 µM
CCC(=O)/C=C1/Sc2ccc(OC)cc2N1CC > 30 µM

Nothing new here: four of the compounds above.
AC50, inactive:
NC(=O)c1ccsc1NC(=O)C1CCCCC1 > 30 µM
Cc1nc(S/C(=C/c2ccc(-c3ccc(C(=O)O)cc3)o2)C(=O)O)n[nH]1 > 30 µM
CC(=O)N1CCN(c2ccccc2NC(=O)c2ccc(Br)o2)CC1 > 30 µM
COc1ccc(NC(=O)Nc2ccc(F)cc2F)c(C)c1 > 30 µM
